Measured values as given in the supplement of paper PMC12823440, “Inhibitors supercharge kinase turnover through native proteolytic circuits” (Nature, 2025).
Where a name gives a salt, the structure may show the parent alone. This is one part of the list. The calls rarely recur for the same compound in another form.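 Kinases, fused to nanoluciferase, were expressed in K562 cells; luminescence was measured every 4 h from 2 to 18 h as percent of control (DMSO = 100%, positive control = 0%). A time point is decreased if signal falls significantly (2 sigma). Hits were called by the authors by a rule that is not shown; the count of time points alone does not decide it.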

Protein sequences, listed by entry. Tags and fused reporters are not part of them. Lines headed by an entry give the natural chain unless they say otherwise; changes in a name come on top.
UniProt P29317, whole entry: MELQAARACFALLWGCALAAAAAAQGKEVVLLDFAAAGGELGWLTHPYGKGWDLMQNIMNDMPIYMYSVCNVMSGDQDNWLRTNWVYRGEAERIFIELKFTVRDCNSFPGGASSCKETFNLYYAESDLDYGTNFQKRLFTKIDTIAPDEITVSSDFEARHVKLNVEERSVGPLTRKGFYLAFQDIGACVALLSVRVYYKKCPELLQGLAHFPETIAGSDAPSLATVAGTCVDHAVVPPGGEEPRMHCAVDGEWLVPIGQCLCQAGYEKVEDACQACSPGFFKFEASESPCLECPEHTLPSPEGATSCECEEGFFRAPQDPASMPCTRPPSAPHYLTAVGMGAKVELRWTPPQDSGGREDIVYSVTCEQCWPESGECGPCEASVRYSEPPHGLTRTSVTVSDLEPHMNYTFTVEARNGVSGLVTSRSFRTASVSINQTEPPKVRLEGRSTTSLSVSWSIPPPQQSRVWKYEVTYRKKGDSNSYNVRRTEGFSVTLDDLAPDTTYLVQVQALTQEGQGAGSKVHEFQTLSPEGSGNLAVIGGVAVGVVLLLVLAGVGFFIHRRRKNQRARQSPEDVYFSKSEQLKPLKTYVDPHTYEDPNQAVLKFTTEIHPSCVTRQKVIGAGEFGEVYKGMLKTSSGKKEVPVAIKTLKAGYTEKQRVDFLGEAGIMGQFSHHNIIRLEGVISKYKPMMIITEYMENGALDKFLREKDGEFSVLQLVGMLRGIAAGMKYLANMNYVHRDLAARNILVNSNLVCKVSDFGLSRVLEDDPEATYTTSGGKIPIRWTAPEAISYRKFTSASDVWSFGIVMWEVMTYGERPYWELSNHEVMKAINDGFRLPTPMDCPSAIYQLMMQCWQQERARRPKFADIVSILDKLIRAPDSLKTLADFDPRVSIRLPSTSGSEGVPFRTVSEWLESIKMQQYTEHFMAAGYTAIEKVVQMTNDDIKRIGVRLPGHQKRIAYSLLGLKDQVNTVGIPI
UniProt P21802, whole entry, looked up: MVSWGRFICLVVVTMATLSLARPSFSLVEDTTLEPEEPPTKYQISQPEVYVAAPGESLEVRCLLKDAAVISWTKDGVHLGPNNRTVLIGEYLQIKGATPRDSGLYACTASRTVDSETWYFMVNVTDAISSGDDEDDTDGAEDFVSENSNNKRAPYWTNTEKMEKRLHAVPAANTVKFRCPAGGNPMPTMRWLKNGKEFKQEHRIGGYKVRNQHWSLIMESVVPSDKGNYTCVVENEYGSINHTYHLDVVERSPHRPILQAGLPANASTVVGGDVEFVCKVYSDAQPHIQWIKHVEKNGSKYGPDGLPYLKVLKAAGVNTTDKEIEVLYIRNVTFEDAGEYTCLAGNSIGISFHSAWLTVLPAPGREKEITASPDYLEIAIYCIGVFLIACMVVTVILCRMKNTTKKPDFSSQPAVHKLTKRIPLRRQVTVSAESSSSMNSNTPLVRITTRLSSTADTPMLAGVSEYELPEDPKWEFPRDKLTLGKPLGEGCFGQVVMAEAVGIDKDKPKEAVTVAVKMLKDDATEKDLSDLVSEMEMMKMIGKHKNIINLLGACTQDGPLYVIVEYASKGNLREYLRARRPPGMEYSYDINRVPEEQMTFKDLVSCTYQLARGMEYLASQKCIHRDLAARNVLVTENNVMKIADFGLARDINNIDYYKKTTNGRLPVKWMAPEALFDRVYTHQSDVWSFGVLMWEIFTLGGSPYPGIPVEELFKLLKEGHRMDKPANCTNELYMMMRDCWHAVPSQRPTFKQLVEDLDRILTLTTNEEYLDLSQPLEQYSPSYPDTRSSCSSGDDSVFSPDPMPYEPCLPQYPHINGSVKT
UniProt P22607, whole entry, looked up: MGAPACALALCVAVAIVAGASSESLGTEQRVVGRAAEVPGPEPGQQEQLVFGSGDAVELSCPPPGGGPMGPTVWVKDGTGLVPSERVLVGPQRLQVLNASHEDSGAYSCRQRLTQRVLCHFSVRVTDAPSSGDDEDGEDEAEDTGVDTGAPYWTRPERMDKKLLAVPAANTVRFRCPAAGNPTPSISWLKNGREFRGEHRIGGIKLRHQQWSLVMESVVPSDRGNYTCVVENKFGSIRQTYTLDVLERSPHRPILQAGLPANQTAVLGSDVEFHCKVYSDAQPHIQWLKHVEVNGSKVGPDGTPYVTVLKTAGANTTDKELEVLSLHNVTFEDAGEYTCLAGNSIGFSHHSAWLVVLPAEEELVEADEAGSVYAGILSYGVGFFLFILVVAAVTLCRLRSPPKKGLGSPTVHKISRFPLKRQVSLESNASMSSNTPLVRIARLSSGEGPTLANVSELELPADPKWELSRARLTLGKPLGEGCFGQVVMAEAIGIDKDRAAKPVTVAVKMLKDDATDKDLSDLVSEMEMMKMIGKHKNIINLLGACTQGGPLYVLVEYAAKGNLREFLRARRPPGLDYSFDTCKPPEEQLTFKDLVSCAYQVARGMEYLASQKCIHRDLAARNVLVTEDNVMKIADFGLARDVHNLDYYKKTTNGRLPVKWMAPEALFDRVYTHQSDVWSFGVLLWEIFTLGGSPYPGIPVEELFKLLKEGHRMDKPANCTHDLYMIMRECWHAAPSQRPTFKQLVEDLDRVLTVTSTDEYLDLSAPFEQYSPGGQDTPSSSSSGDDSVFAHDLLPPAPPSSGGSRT
UniProt P36888, whole entry: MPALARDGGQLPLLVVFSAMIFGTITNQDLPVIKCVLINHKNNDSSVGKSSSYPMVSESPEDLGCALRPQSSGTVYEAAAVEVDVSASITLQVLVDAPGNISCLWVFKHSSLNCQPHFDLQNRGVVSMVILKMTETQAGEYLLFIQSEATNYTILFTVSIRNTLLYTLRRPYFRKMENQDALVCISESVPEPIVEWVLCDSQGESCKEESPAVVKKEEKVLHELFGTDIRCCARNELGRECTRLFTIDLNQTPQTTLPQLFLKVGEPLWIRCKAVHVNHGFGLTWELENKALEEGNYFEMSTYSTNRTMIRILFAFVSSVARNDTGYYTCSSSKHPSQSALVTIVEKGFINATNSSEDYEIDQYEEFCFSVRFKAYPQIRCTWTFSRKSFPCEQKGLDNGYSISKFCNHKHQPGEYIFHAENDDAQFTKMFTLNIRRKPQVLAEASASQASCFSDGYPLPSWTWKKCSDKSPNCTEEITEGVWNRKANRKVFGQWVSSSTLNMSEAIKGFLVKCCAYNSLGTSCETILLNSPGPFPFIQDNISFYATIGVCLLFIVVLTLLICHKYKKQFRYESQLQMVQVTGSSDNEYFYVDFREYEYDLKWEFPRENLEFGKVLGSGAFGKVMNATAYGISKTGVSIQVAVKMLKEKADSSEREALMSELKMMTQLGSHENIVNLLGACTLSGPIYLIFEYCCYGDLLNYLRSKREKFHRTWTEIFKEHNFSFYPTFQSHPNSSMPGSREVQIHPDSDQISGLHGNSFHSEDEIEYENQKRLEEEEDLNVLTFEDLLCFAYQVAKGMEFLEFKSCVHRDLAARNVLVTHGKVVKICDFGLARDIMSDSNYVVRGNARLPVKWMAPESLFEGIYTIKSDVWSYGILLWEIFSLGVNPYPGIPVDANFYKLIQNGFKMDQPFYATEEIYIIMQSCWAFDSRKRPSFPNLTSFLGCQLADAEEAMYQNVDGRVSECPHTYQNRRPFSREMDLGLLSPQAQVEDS
UniProt P06241, whole entry, looked up: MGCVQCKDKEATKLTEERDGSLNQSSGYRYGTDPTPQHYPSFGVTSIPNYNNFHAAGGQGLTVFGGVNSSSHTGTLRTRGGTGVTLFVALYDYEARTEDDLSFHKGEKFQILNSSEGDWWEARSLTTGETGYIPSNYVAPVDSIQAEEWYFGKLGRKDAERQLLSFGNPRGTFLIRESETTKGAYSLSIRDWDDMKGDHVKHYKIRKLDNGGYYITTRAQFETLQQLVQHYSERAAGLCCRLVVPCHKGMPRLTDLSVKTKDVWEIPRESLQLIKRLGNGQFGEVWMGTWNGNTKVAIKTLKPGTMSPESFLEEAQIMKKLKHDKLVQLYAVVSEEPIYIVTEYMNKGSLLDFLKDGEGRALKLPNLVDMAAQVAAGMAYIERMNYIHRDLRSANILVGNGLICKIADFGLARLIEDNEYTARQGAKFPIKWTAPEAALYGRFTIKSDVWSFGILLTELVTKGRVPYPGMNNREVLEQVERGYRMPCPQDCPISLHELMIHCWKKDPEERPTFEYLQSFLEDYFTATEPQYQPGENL
UniProt P49840: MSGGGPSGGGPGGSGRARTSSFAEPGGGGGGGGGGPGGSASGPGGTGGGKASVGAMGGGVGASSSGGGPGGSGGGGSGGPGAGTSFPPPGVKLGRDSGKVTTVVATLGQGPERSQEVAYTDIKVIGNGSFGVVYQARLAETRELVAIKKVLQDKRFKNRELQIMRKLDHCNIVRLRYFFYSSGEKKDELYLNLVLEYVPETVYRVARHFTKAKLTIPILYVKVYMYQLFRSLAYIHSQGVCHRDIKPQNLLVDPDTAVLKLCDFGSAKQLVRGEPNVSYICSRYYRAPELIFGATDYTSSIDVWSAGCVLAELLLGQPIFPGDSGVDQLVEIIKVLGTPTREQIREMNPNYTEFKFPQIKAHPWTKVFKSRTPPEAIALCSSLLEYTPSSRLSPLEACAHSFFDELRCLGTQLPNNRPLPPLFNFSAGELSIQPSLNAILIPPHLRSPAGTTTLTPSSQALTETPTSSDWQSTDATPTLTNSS
UniProt P14616: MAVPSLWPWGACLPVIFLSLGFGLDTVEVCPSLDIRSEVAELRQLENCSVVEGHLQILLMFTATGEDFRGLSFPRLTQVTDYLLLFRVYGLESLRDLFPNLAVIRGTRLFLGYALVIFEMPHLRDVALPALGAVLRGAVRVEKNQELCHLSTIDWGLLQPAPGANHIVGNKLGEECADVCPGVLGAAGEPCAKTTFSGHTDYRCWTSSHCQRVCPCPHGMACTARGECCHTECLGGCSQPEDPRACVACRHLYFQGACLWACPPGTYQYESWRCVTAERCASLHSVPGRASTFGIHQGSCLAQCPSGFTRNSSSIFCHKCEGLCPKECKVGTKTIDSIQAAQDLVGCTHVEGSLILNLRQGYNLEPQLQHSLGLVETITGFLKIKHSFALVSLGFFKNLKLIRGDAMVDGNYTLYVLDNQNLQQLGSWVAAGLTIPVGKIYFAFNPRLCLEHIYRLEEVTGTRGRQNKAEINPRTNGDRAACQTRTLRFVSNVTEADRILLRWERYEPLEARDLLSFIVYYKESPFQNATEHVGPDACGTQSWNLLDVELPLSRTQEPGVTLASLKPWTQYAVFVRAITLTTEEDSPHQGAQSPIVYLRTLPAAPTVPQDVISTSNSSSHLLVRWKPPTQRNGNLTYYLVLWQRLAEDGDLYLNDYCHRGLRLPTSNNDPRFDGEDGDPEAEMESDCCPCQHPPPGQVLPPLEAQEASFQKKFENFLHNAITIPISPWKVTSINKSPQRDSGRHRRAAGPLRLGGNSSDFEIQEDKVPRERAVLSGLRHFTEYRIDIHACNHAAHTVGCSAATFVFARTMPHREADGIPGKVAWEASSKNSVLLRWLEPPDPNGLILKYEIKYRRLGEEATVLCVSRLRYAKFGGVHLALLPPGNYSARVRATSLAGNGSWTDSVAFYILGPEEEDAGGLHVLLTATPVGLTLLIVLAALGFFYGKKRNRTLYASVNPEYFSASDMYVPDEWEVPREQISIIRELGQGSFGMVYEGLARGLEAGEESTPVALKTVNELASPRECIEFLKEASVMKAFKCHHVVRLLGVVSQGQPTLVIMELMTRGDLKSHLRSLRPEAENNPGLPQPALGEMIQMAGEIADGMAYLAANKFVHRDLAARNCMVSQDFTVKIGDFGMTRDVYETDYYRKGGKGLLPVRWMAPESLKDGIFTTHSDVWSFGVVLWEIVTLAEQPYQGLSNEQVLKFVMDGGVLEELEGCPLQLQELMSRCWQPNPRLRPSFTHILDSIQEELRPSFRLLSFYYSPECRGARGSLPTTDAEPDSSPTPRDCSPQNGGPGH

How the values were obtained:
Assay in all cases: kinase-Nluc reporter destabilization hit call (1 = scored as downregulated) (binary); higher = compound decreases kinase abundance
Details in all cases: K562, 2-18 h
EGFR = EGFR (UniProt P00533)
EGFR_G719S = EGFR_G719S (UniProt P00533)
EGFR_G719S_T790M = EGFR_G719S_T790M (UniProt P00533)
EGFR_L718V = EGFR_L718V (UniProt P00533)
EGFR_L858R = EGFR_L858R (UniProt P00533)
EGFR_L861Q = EGFR_L861Q (UniProt P00533)
EGFR_T790M = EGFR_T790M (UniProt P00533)
EPHA2 = EPHA2 (UniProt P29317)
ERBB3 = ERBB3 (UniProt P21860)
[1] = target: ERBB4_R711C (clone: ERBB4_mut) (UniProt Q15303)
ERN1 = ERN1 (UniProt O75460)
FGFR1 = FGFR1 (UniProt P11362)
FGFR2 = FGFR2 (UniProt P21802)
FGFR3 = FGFR3 (UniProt P22607)
FGR = FGR (UniProt P09769)
FLT3 = FLT3 (UniProt P36888)
FYN = FYN (UniProt P06241)
GSK3A = GSK3A (UniProt P49840)
HER2 = HER2 (UniProt P04626)
INSRR = INSRR (UniProt P14616)

Measured: kinase-Nluc reporter destabilization hit call

CCCCCCCCc1ccc(CCC(N)(CO)CO)cc1 [Fingolimod (hydrochloride)]
inactive: EGFR; 2.5 µM 0 | EGFR_G719S; 2.5 µM 0 | EGFR_G719S_T790M; 2.5 µM 0 | EGFR_L718V; 2.5 µM 0 | EGFR_L858R; 2.5 µM 0 | EGFR_L861Q; 2.5 µM 0 | EGFR_T790M; 2.5 µM 0 | EPHA2; 2.5 µM 0 | ERBB3; 2.5 µM 0 | [1]; 2.5 µM 0 | ERN1; 2.5 µM 0 | FGFR1; 2.5 µM 0 | FGFR2; 2.5 µM 0 | FGFR3; 2.5 µM 0 | FGR; 2.5 µM 0 | FLT3; 2.5 µM 0 | FYN; 2.5 µM 0 | GSK3A; 2.5 µM 0 | HER2; 2.5 µM 0 | INSRR; 2.5 µM 0

CCc1nc(C(N)=O)c(Nc2ccc(N3CCC(N4CCN(C)CC4)CC3)c(OC)c2)nc1NC1CCOCC1 [Gilteritinib hemifumarate]
inactive: EGFR; 2 µM 0 | EGFR_G719S; 2 µM 0 | EGFR_G719S_T790M; 2 µM 0 | EGFR_L718V; 2 µM 0 | EGFR_L858R; 2 µM 0 | EGFR_L861Q; 2 µM 0 | EGFR_T790M; 2 µM 0 | EPHA2; 2 µM 0 | ERBB3; 2 µM 0 | [1]; 2 µM 0 | ERN1; 2 µM 0 | FGFR1; 2 µM 0 | FGFR2; 2 µM 0 | FGFR3; 2 µM 0 | FGR; 2 µM 0 | FLT3; 2 µM 0 | FYN; 2 µM 0 | GSK3A; 2 µM 0 | HER2; 2 µM 0 | INSRR; 2 µM 0

Cc1cccc(-c2[nH]c(CNc3ccccc3F)nc2-c2ccc3ncnn3c2)n1 [Vactosertib (Hydrochloride)]
inactive: EGFR; 2.5 µM 0 | EGFR_G719S; 2.5 µM 0 | EGFR_G719S_T790M; 2.5 µM 0 | EGFR_L718V; 2.5 µM 0 | EGFR_L858R; 2.5 µM 0 | EGFR_L861Q; 2.5 µM 0 | EGFR_T790M; 2.5 µM 0 | EPHA2; 2.5 µM 0 | ERBB3; 2.5 µM 0 | [1]; 2.5 µM 0 | ERN1; 2.5 µM 0 | FGFR1; 2.5 µM 0 | FGFR2; 2.5 µM 0 | FGFR3; 2.5 µM 0 | FGR; 2.5 µM 0 | FLT3; 2.5 µM 0 | FYN; 2.5 µM 0 | GSK3A; 2.5 µM 0 | HER2; 2.5 µM 0 | INSRR; 2.5 µM 0

O=C(Nc1ccncc1)Nc1ccc(-c2nc(N3CCOCC3)nc(N3C4CCC3COC4)n2)cc1 [PKI-179 (hydrochloride)]
inactive: EGFR; 2.5 µM 0 | EGFR_G719S; 2.5 µM 0 | EGFR_G719S_T790M; 2.5 µM 0 | EGFR_L718V; 2.5 µM 0 | EGFR_L858R; 2.5 µM 0 | EGFR_L861Q; 2.5 µM 0 | EGFR_T790M; 2.5 µM 0 | EPHA2; 2.5 µM 0 | ERBB3; 2.5 µM 0 | [1]; 2.5 µM 0 | ERN1; 2.5 µM 0 | FGFR1; 2.5 µM 0 | FGFR2; 2.5 µM 0 | FGFR3; 2.5 µM 0 | FGR; 2.5 µM 0 | FLT3; 2.5 µM 0 | FYN; 2.5 µM 0 | GSK3A; 2.5 µM 0 | HER2; 2.5 µM 0 | INSRR; 2.5 µM 0
